In the supplement of paper PMC12823440, “Inhibitors supercharge kinase turnover through native proteolytic circuits” (Nature, 2025):
Where a name gives a salt, the structure may show the parent alone. The list shows a part of the results. Hit calls seldom repeat between salt and free forms of one compound.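 Kinases were expressed as nanoluciferase fusions in K562 cells and luminescence was read every 4 h between 2 and 18 h as percent of control, DMSO set to 100% and a positive control to 0%. A time point counts as decreased when the signal drops significantly (2 sigma). The hit call is the authors' own, does not follow from the count of time points alone, and its rule is not shown.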

By UniProt entry, the sequences of proteins in these tests, tags left out. Where a name states a change or a piece, a line headed by the entry shows the natural chain unless it says otherwise.
UniProt P07949, whole entry, looked up: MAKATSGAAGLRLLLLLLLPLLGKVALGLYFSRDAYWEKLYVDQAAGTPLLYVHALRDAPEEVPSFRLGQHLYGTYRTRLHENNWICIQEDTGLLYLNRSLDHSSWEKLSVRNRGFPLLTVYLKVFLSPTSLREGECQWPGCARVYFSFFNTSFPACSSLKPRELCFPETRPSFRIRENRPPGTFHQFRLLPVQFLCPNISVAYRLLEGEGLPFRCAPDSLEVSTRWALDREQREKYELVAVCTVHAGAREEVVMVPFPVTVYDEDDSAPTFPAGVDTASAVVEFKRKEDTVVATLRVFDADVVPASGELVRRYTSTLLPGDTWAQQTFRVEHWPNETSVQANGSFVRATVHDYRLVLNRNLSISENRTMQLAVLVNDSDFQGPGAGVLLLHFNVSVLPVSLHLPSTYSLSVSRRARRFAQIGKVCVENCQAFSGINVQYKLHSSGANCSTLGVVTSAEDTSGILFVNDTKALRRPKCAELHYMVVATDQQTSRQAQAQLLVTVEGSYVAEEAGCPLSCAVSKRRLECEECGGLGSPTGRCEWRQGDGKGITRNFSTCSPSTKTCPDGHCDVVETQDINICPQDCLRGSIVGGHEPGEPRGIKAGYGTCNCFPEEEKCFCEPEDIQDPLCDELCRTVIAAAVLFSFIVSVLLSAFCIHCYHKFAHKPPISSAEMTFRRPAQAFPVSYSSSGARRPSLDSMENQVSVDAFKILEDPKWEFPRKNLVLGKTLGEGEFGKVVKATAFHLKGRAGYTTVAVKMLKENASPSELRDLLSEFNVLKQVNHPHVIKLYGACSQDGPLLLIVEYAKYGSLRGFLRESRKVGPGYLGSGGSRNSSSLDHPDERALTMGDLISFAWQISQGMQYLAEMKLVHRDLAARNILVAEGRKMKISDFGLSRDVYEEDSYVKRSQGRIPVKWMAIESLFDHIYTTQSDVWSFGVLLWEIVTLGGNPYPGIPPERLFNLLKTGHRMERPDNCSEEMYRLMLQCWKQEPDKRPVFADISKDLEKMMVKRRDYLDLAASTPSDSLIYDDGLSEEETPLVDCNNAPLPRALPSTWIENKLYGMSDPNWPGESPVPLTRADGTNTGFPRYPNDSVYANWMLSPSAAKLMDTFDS
UniProt P07949, whole entry M918T, looked up: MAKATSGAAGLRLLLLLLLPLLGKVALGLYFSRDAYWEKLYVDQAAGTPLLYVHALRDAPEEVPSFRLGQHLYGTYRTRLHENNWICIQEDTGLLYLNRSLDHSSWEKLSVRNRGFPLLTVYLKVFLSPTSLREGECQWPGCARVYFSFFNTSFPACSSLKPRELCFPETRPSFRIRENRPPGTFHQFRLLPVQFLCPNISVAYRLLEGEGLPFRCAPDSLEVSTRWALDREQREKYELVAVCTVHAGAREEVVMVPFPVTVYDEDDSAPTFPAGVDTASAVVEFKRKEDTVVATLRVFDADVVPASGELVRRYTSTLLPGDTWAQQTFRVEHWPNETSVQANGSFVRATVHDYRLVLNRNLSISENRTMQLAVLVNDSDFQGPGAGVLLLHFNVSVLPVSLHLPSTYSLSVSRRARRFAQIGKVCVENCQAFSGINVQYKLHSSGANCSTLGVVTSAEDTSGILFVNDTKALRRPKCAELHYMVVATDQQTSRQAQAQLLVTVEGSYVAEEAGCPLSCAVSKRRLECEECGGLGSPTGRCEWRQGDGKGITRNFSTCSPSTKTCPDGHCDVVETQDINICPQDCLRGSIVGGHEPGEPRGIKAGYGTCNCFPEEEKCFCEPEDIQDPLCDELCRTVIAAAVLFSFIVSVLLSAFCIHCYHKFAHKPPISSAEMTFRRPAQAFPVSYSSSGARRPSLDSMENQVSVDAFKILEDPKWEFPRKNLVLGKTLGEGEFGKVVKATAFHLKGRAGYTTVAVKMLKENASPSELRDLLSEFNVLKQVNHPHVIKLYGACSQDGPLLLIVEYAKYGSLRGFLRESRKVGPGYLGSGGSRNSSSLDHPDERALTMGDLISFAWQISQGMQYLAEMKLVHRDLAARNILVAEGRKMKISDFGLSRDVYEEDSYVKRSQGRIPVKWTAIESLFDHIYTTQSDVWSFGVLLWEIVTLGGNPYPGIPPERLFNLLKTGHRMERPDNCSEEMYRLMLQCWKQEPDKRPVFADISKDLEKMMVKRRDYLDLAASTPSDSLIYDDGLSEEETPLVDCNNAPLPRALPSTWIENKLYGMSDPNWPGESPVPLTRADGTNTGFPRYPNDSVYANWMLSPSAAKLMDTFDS
UniProt Q9BRS2: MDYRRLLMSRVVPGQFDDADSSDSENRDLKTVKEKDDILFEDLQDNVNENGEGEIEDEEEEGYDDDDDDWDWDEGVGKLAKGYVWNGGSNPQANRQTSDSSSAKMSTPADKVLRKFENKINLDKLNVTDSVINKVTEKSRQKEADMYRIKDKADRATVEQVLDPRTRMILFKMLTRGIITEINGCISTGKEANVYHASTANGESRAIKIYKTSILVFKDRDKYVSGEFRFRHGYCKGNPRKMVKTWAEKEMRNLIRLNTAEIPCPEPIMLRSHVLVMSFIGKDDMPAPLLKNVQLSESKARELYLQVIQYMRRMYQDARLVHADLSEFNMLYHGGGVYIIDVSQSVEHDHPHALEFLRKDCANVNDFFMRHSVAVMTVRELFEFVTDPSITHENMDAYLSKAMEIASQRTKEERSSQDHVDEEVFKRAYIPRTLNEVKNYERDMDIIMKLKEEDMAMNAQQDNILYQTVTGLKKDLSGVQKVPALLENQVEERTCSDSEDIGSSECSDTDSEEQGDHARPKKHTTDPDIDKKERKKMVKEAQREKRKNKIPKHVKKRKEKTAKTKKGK
UniProt Q13546: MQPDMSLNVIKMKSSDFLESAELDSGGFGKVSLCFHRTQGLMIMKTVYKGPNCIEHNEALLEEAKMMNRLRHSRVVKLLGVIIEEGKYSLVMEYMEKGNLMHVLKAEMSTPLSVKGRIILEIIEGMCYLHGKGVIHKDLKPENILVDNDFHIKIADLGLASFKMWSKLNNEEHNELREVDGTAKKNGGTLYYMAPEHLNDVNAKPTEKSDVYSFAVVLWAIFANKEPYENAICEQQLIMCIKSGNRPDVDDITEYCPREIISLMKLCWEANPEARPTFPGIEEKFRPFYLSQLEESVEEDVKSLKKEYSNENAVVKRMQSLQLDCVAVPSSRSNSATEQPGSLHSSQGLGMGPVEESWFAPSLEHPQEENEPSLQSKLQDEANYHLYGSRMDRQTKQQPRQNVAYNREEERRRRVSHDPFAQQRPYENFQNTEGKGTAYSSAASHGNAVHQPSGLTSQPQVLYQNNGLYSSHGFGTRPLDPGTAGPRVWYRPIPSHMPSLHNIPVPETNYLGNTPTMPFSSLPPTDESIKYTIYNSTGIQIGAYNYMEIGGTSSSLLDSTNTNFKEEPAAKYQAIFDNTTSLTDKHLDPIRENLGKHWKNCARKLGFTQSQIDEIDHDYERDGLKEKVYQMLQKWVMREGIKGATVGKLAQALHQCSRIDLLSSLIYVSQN
UniProt Q9NYA1, whole entry: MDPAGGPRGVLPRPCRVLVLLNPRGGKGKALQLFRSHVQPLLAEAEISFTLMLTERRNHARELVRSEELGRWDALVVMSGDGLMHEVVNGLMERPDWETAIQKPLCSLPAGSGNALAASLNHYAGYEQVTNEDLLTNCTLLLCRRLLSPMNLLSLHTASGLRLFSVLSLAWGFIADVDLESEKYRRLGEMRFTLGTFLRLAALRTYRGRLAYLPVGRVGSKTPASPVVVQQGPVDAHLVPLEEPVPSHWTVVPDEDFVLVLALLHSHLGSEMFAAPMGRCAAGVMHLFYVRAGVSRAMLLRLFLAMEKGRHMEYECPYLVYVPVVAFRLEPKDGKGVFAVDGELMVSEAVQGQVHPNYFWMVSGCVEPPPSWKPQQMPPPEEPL
UniProt Q15208: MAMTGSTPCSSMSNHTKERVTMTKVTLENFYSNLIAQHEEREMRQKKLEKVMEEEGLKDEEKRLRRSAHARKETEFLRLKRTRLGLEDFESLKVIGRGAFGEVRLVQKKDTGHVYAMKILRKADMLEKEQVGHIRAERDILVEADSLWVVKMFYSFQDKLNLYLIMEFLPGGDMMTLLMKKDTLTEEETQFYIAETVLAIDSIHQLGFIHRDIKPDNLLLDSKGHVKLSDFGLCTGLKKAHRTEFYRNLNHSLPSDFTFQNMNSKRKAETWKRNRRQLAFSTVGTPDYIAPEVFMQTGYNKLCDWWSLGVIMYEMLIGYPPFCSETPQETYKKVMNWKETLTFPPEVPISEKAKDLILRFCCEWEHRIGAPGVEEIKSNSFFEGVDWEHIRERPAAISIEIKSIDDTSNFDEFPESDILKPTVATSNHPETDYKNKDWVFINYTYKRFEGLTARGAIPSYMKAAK
UniProt Q6PHR2: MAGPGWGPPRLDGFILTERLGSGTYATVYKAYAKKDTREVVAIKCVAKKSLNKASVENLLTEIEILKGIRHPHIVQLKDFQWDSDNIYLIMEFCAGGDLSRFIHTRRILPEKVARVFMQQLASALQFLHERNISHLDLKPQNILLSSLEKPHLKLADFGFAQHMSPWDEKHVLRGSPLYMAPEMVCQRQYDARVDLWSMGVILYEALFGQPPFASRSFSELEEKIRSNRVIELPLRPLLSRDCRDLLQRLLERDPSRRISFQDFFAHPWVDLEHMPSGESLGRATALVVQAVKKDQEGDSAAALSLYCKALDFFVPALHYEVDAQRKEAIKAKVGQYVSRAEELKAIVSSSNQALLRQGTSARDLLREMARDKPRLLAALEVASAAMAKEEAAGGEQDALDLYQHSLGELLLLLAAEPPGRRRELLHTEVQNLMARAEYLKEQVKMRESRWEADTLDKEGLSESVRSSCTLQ
UniProt P07947, whole entry, looked up: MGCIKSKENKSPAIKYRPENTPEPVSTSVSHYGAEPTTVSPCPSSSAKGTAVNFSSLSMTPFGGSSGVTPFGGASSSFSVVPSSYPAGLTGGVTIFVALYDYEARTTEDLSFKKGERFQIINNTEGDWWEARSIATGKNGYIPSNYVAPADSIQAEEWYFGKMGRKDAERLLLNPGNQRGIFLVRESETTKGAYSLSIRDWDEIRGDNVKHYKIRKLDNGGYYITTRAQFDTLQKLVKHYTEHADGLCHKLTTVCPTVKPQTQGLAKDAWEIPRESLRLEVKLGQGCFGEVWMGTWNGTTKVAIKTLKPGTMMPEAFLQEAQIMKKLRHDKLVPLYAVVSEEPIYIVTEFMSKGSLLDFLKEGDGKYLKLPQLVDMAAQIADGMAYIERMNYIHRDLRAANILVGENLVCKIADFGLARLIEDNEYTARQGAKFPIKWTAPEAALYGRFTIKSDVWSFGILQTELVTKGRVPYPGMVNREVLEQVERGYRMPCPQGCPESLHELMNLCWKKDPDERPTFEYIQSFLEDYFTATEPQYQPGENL
UniProt P43403: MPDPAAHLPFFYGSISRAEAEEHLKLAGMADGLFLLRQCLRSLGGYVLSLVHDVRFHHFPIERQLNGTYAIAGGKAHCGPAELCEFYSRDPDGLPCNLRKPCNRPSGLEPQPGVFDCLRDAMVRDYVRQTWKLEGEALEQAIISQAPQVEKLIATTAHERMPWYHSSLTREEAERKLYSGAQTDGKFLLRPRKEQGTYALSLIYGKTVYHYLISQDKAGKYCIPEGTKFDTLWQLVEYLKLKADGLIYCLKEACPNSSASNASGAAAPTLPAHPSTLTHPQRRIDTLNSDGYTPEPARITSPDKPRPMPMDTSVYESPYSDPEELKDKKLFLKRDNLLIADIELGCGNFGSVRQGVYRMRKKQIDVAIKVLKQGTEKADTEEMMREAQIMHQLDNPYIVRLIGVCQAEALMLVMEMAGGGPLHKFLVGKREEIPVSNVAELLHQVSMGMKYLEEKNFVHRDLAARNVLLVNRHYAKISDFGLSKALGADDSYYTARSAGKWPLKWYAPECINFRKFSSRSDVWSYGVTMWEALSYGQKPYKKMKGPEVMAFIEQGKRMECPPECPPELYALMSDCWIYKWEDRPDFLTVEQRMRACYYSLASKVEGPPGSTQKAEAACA
UniProt P11802: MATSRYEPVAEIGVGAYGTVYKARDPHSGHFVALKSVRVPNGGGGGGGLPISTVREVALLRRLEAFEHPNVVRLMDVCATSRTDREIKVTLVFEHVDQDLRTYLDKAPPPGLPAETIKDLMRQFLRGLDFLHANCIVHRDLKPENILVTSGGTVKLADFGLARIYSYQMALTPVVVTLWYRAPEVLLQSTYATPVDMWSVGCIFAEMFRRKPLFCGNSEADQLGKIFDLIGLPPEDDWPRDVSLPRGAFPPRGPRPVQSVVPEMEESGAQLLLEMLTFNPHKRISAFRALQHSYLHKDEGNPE
UniProt P50613: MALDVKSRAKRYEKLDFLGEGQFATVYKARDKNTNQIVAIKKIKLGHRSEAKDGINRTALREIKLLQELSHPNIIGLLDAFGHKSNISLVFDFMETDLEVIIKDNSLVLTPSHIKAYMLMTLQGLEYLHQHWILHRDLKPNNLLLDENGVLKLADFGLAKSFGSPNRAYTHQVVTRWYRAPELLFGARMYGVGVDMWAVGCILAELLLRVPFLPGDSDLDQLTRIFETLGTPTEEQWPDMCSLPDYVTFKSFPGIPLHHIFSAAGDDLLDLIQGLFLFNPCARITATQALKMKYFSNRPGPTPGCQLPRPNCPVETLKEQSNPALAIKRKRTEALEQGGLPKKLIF

Key:
Conditions in all cases: K562, 2-18 h
RET = RET (UniProt P07949); assay: kinase-Nluc reporter destabilization hit call (1 = scored as downregulated) (binary); higher = compound decreases kinase abundance
[1] = target: RET_M918T (clone: RET_mut) (UniProt P07949); assay: as above
RIOK1 = RIOK1 (UniProt Q9BRS2); assay: as above
RIPK1 = RIPK1 (UniProt Q13546); assay: as above
RIPK2 = RIPK2 (UniProt O43353); assay: as above
ROR2 = ROR2 (UniProt Q01974); assay: as above
RPS6KA1 = RPS6KA1 (UniProt Q15418); assay: as above
SPHK1 = SPHK1 (UniProt Q9NYA1); assay: as above
SRC = SRC (UniProt P12931); assay: as above
STK24 = STK24 (UniProt Q9Y6E0); assay: as above
STK38 = STK38 (UniProt Q15208); assay: as above
SYK = SYK (UniProt P43405); assay: as above
TEC = TEC (UniProt P42680); assay: as above
TYK2 = TYK2 (UniProt P29597); assay: as above
ULK3 = ULK3 (UniProt Q6PHR2); assay: as above
YES1 = YES1 (UniProt P07947); assay: as above
ZAK = ZAK (UniProt Q9NYL2); assay: as above
ZAP70 = ZAP70 (UniProt P43403); assay: as above
CDK4 = CDK4 (UniProt P11802); assay: number of time points (of 4; 2 h point missing) at which kinase-Nluc abundance scored as decreased, DMSO-normalised (count); higher = more persistent destabilization
CDK7 = CDK7 (UniProt P50613); assay: as above

CC(C)Oc1ccc(-c2nn([C@@H](C)c3oc4ccc(F)cc4c(=O)c3-c3cccc(F)c3)c3ncnc(N)c23)cc1F [Umbralisib (hydrochloride)]
0: number of time points (CDK4; 2.5 µM) | number of time points (CDK7; 2.5 µM)
inactive: kinase-Nluc reporter destabilization hit call (RET; 2.5 µM) 0 | kinase-Nluc reporter destabilization hit call ([1]; 2.5 µM) 0 | kinase-Nluc reporter destabilization hit call (RIOK1; 2.5 µM) 0 | kinase-Nluc reporter destabilization hit call (RIPK1; 2.5 µM) 0 | kinase-Nluc reporter destabilization hit call (RIPK2; 2.5 µM) 0 | kinase-Nluc reporter destabilization hit call (ROR2; 2.5 µM) 0 | kinase-Nluc reporter destabilization hit call (RPS6KA1; 2.5 µM) 0 | kinase-Nluc reporter destabilization hit call (SPHK1; 2.5 µM) 0 | kinase-Nluc reporter destabilization hit call (SRC; 2.5 µM) 0 | kinase-Nluc reporter destabilization hit call (STK24; 2.5 µM) 0 | kinase-Nluc reporter destabilization hit call (STK38; 2.5 µM) 0 | kinase-Nluc reporter destabilization hit call (SYK; 2.5 µM) 0 | kinase-Nluc reporter destabilization hit call (TEC; 2.5 µM) 0 | kinase-Nluc reporter destabilization hit call (TYK2; 2.5 µM) 0 | kinase-Nluc reporter destabilization hit call (ULK3; 2.5 µM) 0 | kinase-Nluc reporter destabilization hit call (YES1; 2.5 µM) 0 | kinase-Nluc reporter destabilization hit call (ZAK; 2.5 µM) 0 | kinase-Nluc reporter destabilization hit call (ZAP70; 2.5 µM) 0

CCN(CC)CC(=O)Nc1c(C)cccc1C [Lidocaine (hydrochloride)]
inactive: kinase-Nluc reporter destabilization hit call (RET; 10 µM) 0 | kinase-Nluc reporter destabilization hit call ([1]; 10 µM) 0 | kinase-Nluc reporter destabilization hit call (RIOK1; 10 µM) 0 | kinase-Nluc reporter destabilization hit call (RIPK1; 10 µM) 0 | kinase-Nluc reporter destabilization hit call (RIPK2; 10 µM) 0 | kinase-Nluc reporter destabilization hit call (ROR2; 10 µM) 0 | kinase-Nluc reporter destabilization hit call (RPS6KA1; 10 µM) 0 | kinase-Nluc reporter destabilization hit call (SPHK1; 10 µM) 0 | kinase-Nluc reporter destabilization hit call (SRC; 10 µM) 0 | kinase-Nluc reporter destabilization hit call (STK24; 10 µM) 0 | kinase-Nluc reporter destabilization hit call (STK38; 10 µM) 0 | kinase-Nluc reporter destabilization hit call (SYK; 10 µM) 0 | kinase-Nluc reporter destabilization hit call (TEC; 10 µM) 0 | kinase-Nluc reporter destabilization hit call (TYK2; 10 µM) 0 | kinase-Nluc reporter destabilization hit call (ULK3; 10 µM) 0 | kinase-Nluc reporter destabilization hit call (YES1; 10 µM) 0 | kinase-Nluc reporter destabilization hit call (ZAK; 10 µM) 0 | kinase-Nluc reporter destabilization hit call (ZAP70; 10 µM) 0
0: number of time points (CDK4; 10 µM) | number of time points (CDK7; 10 µM)

C=CC(=O)Nc1cc(Nc2ncc(C(=O)OC(C)C)c(-c3cn(C)c4ccccc34)n2)c(OC)cc1N(C)CCN(C)C [Mobocertinib]
0: number of time points (CDK4; 10 µM) | number of time points (CDK7; 10 µM)
inactive: kinase-Nluc reporter destabilization hit call (RET; 10 µM) 0 | kinase-Nluc reporter destabilization hit call ([1]; 10 µM) 0 | kinase-Nluc reporter destabilization hit call (RIOK1; 10 µM) 0 | kinase-Nluc reporter destabilization hit call (RIPK1; 10 µM) 0 | kinase-Nluc reporter destabilization hit call (RIPK2; 10 µM) 0 | kinase-Nluc reporter destabilization hit call (ROR2; 10 µM) 0 | kinase-Nluc reporter destabilization hit call (RPS6KA1; 10 µM) 0 | kinase-Nluc reporter destabilization hit call (SPHK1; 10 µM) 0 | kinase-Nluc reporter destabilization hit call (SRC; 10 µM) 0 | kinase-Nluc reporter destabilization hit call (STK24; 10 µM) 0 | kinase-Nluc reporter destabilization hit call (STK38; 10 µM) 0 | kinase-Nluc reporter destabilization hit call (SYK; 10 µM) 0 | kinase-Nluc reporter destabilization hit call (TEC; 10 µM) 0 | kinase-Nluc reporter destabilization hit call (TYK2; 10 µM) 0 | kinase-Nluc reporter destabilization hit call (ULK3; 10 µM) 0 | kinase-Nluc reporter destabilization hit call (YES1; 10 µM) 0 | kinase-Nluc reporter destabilization hit call (ZAK; 10 µM) 0 | kinase-Nluc reporter destabilization hit call (ZAP70; 10 µM) 0

CCS(=O)(=O)N1CC(CC#N)(n2cc(-c3ncnc4[nH]ccc34)cn2)C1 [Baricitinib]
0: number of time points (CDK4; 10 µM) | number of time points (CDK7; 10 µM)
inactive: kinase-Nluc reporter destabilization hit call (RET; 10 µM) 0 | kinase-Nluc reporter destabilization hit call ([1]; 10 µM) 0 | kinase-Nluc reporter destabilization hit call (RIOK1; 10 µM) 0 | kinase-Nluc reporter destabilization hit call (RIPK1; 10 µM) 0 | kinase-Nluc reporter destabilization hit call (RIPK2; 10 µM) 0 | kinase-Nluc reporter destabilization hit call (ROR2; 10 µM) 0 | kinase-Nluc reporter destabilization hit call (RPS6KA1; 10 µM) 0 | kinase-Nluc reporter destabilization hit call (SPHK1; 10 µM) 0 | kinase-Nluc reporter destabilization hit call (SRC; 10 µM) 0 | kinase-Nluc reporter destabilization hit call (STK24; 10 µM) 0 | kinase-Nluc reporter destabilization hit call (STK38; 10 µM) 0 | kinase-Nluc reporter destabilization hit call (SYK; 10 µM) 0 | kinase-Nluc reporter destabilization hit call (TEC; 10 µM) 0 | kinase-Nluc reporter destabilization hit call (TYK2; 10 µM) 0 | kinase-Nluc reporter destabilization hit call (ULK3; 10 µM) 0 | kinase-Nluc reporter destabilization hit call (YES1; 10 µM) 0 | kinase-Nluc reporter destabilization hit call (ZAK; 10 µM) 0 | kinase-Nluc reporter destabilization hit call (ZAP70; 10 µM) 0

Clc1ccc(C2(c3ccc(-c4cn[nH]c4)cc3)CCNCC2)cc1
0: number of time points (CDK4; 10 µM)
inactive: kinase-Nluc reporter destabilization hit call (RET; 10 µM) 0 | kinase-Nluc reporter destabilization hit call ([1]; 10 µM) 0 | kinase-Nluc reporter destabilization hit call (RIOK1; 10 µM) 0 | kinase-Nluc reporter destabilization hit call (RIPK1; 10 µM) 0 | kinase-Nluc reporter destabilization hit call (RIPK2; 10 µM) 0 | kinase-Nluc reporter destabilization hit call (ROR2; 10 µM) 0 | kinase-Nluc reporter destabilization hit call (RPS6KA1; 10 µM) 0 | kinase-Nluc reporter destabilization hit call (SPHK1; 10 µM) 0 | kinase-Nluc reporter destabilization hit call (SRC; 10 µM) 0 | kinase-Nluc reporter destabilization hit call (STK24; 10 µM) 0 | kinase-Nluc reporter destabilization hit call (STK38; 10 µM) 0 | kinase-Nluc reporter destabilization hit call (SYK; 10 µM) 0 | kinase-Nluc reporter destabilization hit call (TEC; 10 µM) 0 | kinase-Nluc reporter destabilization hit call (TYK2; 10 µM) 0 | kinase-Nluc reporter destabilization hit call (ULK3; 10 µM) 0 | kinase-Nluc reporter destabilization hit call (YES1; 10 µM) 0 | kinase-Nluc reporter destabilization hit call (ZAK; 10 µM) 0 | kinase-Nluc reporter destabilization hit call (ZAP70; 10 µM) 0
2: number of time points (CDK7; 10 µM)

c1cc(-c2cnn3cc(-c4ccc(OCCN5CCCCC5)cc4)cnc23)ccn1 [Dorsomorphin (dihydrochloride)]
inactive: kinase-Nluc reporter destabilization hit call (RET; 2.5 µM) 0 | kinase-Nluc reporter destabilization hit call ([1]; 2.5 µM) 0 | kinase-Nluc reporter destabilization hit call (RIOK1; 2.5 µM) 0 | kinase-Nluc reporter destabilization hit call (RIPK1; 2.5 µM) 0 | kinase-Nluc reporter destabilization hit call (RIPK2; 2.5 µM) 0 | kinase-Nluc reporter destabilization hit call (ROR2; 2.5 µM) 0 | kinase-Nluc reporter destabilization hit call (RPS6KA1; 2.5 µM) 0 | kinase-Nluc reporter destabilization hit call (SPHK1; 2.5 µM) 0 | kinase-Nluc reporter destabilization hit call (SRC; 2.5 µM) 0 | kinase-Nluc reporter destabilization hit call (STK24; 2.5 µM) 0 | kinase-Nluc reporter destabilization hit call (STK38; 2.5 µM) 0 | kinase-Nluc reporter destabilization hit call (SYK; 2.5 µM) 0 | kinase-Nluc reporter destabilization hit call (TEC; 2.5 µM) 0 | kinase-Nluc reporter destabilization hit call (TYK2; 2.5 µM) 0 | kinase-Nluc reporter destabilization hit call (ULK3; 2.5 µM) 0 | kinase-Nluc reporter destabilization hit call (YES1; 2.5 µM) 0 | kinase-Nluc reporter destabilization hit call (ZAK; 2.5 µM) 0 | kinase-Nluc reporter destabilization hit call (ZAP70; 2.5 µM) 0
1: number of time points (CDK7; 2.5 µM)
0: number of time points (CDK4; 2.5 µM)

Cn1cc(-c2cnc3ccc4ccc(CS(=O)(=O)NCc5ccccn5)cc4c(=O)c3c2)cn1 [MK-8033 (hydrochloride)]
0: number of time points (CDK4; 10 µM) | number of time points (CDK7; 10 µM)
inactive: kinase-Nluc reporter destabilization hit call (RET; 10 µM) 0 | kinase-Nluc reporter destabilization hit call ([1]; 10 µM) 0 | kinase-Nluc reporter destabilization hit call (RIOK1; 10 µM) 0 | kinase-Nluc reporter destabilization hit call (RIPK1; 10 µM) 0 | kinase-Nluc reporter destabilization hit call (RIPK2; 10 µM) 0 | kinase-Nluc reporter destabilization hit call (ROR2; 10 µM) 0 | kinase-Nluc reporter destabilization hit call (RPS6KA1; 10 µM) 0 | kinase-Nluc reporter destabilization hit call (SPHK1; 10 µM) 0 | kinase-Nluc reporter destabilization hit call (SRC; 10 µM) 0 | kinase-Nluc reporter destabilization hit call (STK24; 10 µM) 0 | kinase-Nluc reporter destabilization hit call (STK38; 10 µM) 0 | kinase-Nluc reporter destabilization hit call (SYK; 10 µM) 0 | kinase-Nluc reporter destabilization hit call (TEC; 10 µM) 0 | kinase-Nluc reporter destabilization hit call (TYK2; 10 µM) 0 | kinase-Nluc reporter destabilization hit call (ULK3; 10 µM) 0 | kinase-Nluc reporter destabilization hit call (YES1; 10 µM) 0 | kinase-Nluc reporter destabilization hit call (ZAK; 10 µM) 0 | kinase-Nluc reporter destabilization hit call (ZAP70; 10 µM) 0

Cc1cccc(-c2[nH]c(CNc3ccccc3F)nc2-c2ccc3ncnn3c2)n1 [Vactosertib (Hydrochloride)]
inactive: kinase-Nluc reporter destabilization hit call (RET; 2.5 µM) 0 | kinase-Nluc reporter destabilization hit call ([1]; 2.5 µM) 0 | kinase-Nluc reporter destabilization hit call (RIOK1; 2.5 µM) 0 | kinase-Nluc reporter destabilization hit call (RIPK1; 2.5 µM) 0 | kinase-Nluc reporter destabilization hit call (RIPK2; 2.5 µM) 0 | kinase-Nluc reporter destabilization hit call (ROR2; 2.5 µM) 0 | kinase-Nluc reporter destabilization hit call (RPS6KA1; 2.5 µM) 0 | kinase-Nluc reporter destabilization hit call (SPHK1; 2.5 µM) 0 | kinase-Nluc reporter destabilization hit call (SRC; 2.5 µM) 0 | kinase-Nluc reporter destabilization hit call (STK24; 2.5 µM) 0 | kinase-Nluc reporter destabilization hit call (STK38; 2.5 µM) 0 | kinase-Nluc reporter destabilization hit call (SYK; 2.5 µM) 0 | kinase-Nluc reporter destabilization hit call (TEC; 2.5 µM) 0 | kinase-Nluc reporter destabilization hit call (TYK2; 2.5 µM) 0 | kinase-Nluc reporter destabilization hit call (ULK3; 2.5 µM) 0 | kinase-Nluc reporter destabilization hit call (YES1; 2.5 µM) 0 | kinase-Nluc reporter destabilization hit call (ZAK; 2.5 µM) 0 | kinase-Nluc reporter destabilization hit call (ZAP70; 2.5 µM) 0
0: number of time points (CDK4; 2.5 µM) | number of time points (CDK7; 2.5 µM)

C=CC(=O)Nc1cc(Nc2nccc(-c3cn(C4CC4)c4ccccc34)n2)c(OC)cc1N(C)CCN(C)C [Almonertinib (hydrochloride)]
inactive: kinase-Nluc reporter destabilization hit call (RET; 2.5 µM) 0 | kinase-Nluc reporter destabilization hit call ([1]; 2.5 µM) 0 | kinase-Nluc reporter destabilization hit call (RIOK1; 2.5 µM) 0 | kinase-Nluc reporter destabilization hit call (RIPK1; 2.5 µM) 0 | kinase-Nluc reporter destabilization hit call (RIPK2; 2.5 µM) 0 | kinase-Nluc reporter destabilization hit call (ROR2; 2.5 µM) 0 | kinase-Nluc reporter destabilization hit call (RPS6KA1; 2.5 µM) 0 | kinase-Nluc reporter destabilization hit call (SPHK1; 2.5 µM) 0 | kinase-Nluc reporter destabilization hit call (SRC; 2.5 µM) 0 | kinase-Nluc reporter destabilization hit call (STK24; 2.5 µM) 0 | kinase-Nluc reporter destabilization hit call (STK38; 2.5 µM) 0 | kinase-Nluc reporter destabilization hit call (SYK; 2.5 µM) 0 | kinase-Nluc reporter destabilization hit call (TEC; 2.5 µM) 0 | kinase-Nluc reporter destabilization hit call (TYK2; 2.5 µM) 0 | kinase-Nluc reporter destabilization hit call (ULK3; 2.5 µM) 0 | kinase-Nluc reporter destabilization hit call (YES1; 2.5 µM) 0 | kinase-Nluc reporter destabilization hit call (ZAK; 2.5 µM) 0 | kinase-Nluc reporter destabilization hit call (ZAP70; 2.5 µM) 0
0: number of time points (CDK4; 2.5 µM) | number of time points (CDK7; 2.5 µM)
